# Earlier results as cited in patent publication US20230190741A1, “LONG-LASTING REABSORBABLE SUBCUTANEOUS IMPLANT WITH SUSTAINED RELEASE OF PRE-CONCENTRATED PHARMACOLOGICALLY ACTIVE SUBSTANCE IN POLYMER FOR THE TREATMENT OF ERECTILE DYSFUNCTION AND BENIGN PROSTATIC HYPERPLASIA” (priority 2020, published 2023).
# At least one structure is not confirmed: it was looked up by name or label, or the drawing left a doubt.
# Tested on: BPH symptoms
# Conditions: daily treatment for 12 weeks; cited from earlier work
smiles,measurement,value
CN1CC(=O)N2[C@H](c3ccc4c(c3)OCO4)c3[nH]c4ccccc4c3C[C@@H]2C1=O [tadalafil],effect on BPH symptoms,significant clinical reduction of BPH symptoms
